This assay concerns the target T1, 3MYC-SENP2 (UniProt Q9HC62).
T1 sequence: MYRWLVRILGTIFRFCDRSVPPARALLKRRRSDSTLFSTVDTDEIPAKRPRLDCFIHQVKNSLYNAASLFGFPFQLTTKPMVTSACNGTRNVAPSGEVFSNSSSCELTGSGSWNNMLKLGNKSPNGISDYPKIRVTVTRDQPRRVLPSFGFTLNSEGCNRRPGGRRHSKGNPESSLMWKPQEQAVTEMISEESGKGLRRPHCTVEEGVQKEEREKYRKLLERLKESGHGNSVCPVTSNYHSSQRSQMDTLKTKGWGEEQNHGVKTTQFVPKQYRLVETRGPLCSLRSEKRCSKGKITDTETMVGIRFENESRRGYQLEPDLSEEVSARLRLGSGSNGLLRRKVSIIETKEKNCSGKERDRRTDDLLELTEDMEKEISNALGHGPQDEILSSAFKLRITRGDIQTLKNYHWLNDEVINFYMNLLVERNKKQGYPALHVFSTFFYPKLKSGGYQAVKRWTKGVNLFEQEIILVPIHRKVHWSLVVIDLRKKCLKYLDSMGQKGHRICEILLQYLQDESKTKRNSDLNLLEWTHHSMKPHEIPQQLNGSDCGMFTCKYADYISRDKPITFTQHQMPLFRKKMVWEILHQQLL
The experiment in a line: co-IP; reciprocal IP: HEK293T co-transfected for 48 h, RIPA lysate, anti-MYC-agarose overnight at 4 °C, five washes with RIPA, western blot.

These are yes or no findings as the source states them, for the method shown. Binding seen in cells or lysates may run through a third protein. Binding calls can cover weak binding; strength is not graded here. Sequences can lack the tags named with a protein.

“hSSB1 N-terminal OB-fold domain (human) (domain or fragment)”: the binding entry is on record as “binds”.
